Source: publication PMC7253684
No constants are given. Whether binding was seen depends on the method and setting. In cells and extracts the contact can be indirect. Some results given as binding are weak or reduced against the parent protein; the word gives no strength.

Chains of the proteins cited; added tags and fusions are not shown.
UniProt P35222: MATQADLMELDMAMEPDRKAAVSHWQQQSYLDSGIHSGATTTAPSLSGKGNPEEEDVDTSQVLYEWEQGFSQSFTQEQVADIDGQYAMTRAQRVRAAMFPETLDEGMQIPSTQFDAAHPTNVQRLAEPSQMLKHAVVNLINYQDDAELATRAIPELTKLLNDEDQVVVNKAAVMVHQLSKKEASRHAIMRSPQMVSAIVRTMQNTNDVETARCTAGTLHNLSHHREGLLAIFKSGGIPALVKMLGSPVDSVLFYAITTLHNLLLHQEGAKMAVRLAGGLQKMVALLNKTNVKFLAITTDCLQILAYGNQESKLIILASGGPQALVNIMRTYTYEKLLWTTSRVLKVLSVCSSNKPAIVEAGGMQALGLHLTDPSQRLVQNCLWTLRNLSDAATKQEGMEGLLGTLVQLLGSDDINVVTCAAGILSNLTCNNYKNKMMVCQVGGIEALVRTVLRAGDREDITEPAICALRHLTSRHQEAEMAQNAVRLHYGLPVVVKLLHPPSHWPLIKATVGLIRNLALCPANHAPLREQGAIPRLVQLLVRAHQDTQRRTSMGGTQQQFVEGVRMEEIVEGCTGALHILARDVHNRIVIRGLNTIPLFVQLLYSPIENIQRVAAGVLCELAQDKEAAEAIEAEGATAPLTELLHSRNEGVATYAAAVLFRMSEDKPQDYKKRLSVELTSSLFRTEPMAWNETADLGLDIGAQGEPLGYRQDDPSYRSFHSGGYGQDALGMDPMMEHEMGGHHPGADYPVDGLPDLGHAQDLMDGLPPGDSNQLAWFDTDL

Target: T1, Adherens junction-associated protein 1 (human (endogenous in T24)) (UniProt Q9UKB5)
T1 sequence: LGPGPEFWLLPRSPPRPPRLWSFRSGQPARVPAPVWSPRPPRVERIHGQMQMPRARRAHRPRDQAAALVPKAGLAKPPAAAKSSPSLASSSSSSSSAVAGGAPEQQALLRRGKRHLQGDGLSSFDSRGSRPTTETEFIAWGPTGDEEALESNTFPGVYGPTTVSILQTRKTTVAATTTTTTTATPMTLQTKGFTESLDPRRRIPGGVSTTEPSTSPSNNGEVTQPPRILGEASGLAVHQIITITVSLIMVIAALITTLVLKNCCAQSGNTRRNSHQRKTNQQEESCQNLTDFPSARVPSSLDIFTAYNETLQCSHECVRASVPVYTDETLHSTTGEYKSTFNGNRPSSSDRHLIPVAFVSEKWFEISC
Assay: co-IP; endogenous proteins in T24 cell lysate (CLB buffer: 50 mM Tris pH 8.0, 100 mM NaCl, 1% NP-40, 10% glycerol); 1,000 μg lysate with 1 μg of the indicated antibody 3-4 h at 4°C, Protein A/G beads, five washes with NETN buffer; immunoblot

- binding: binds
Substance: β-catenin (from UniProt P35222 1-781)
